Part of at least one peptide drawing is inferred or uncertain, most often the ends. Non-standard residues stand in square brackets, D forms with d. Residues, ends and D or L forms follow the SMILES beside them. *: point of attachment. CH3O(CH2CH2O)11CH2CH2CO = COCCOCCOCCOCCOCCOCCOCCOCCOCCOCCOCCOCCC(=O)*; X1 = O=[N+]([O-])c1ccc(NCCN*)cc1; Cit = NC(=O)NCCC[C@H](N)C(=O)O
Test system: liver lysosomal (enzyme) extract
Assay: Digestion assay with rat liver lysosomal extract
Type: biochemical
Conditions: for Sample Velocity / Normalized Velocity: AENA substrates; for Sample Velocity: linear rate of reporter generation at <50% completion, pH 5, 37° C.; for Normalized Velocity: normalized with compound 60 velocity (average 123.8 nmol/h); for Relative Velocity, Lysosomal Extract: normalized to compound 23
Description: Various amino acid combinations, tetrapeptides, were used to link various first moieties (R^5) and an AENA report group second compound (R^6) to form assay substrates (substrates). Cleavage rate of the peptides were evaluated by analysis of digestion of the substrates in the presence of rat lysosomal extract.
Reporting groups were coupled to the C-terminus of the peptide substrates as described above for UV-vis monitoring to explore the influence of amino acid sequence on kinetics of peptide degradation by HPLC. N-(2-aminoethyl)-4-nitroaniline (AENA) or N-(aminoethyl)-5-napthylamine-1-sulfonic acid (EDANS) were used as reporting groups for HPLC monitoring as neither absorptivity nor lambda maximum were affected for either after cleavage from the peptide. The N-terminus of each peptide substrate was modified with either methoxy polyethylene glycol (PEG12) or N-acetyl galactosamine (NAG(OR)3) (FIG. 1).
Proteolytic digestion experiments were carried out at a fixed substrate concentration (0.51 μmol) using liver lysosomal (enzyme) extract (0.45 μg/μL) in a 25 mM MES solution buffered to pH 5 containing 1% CHAPS and 1.8 mM DTT incubated at 37° C. Enzyme extract was activated in the presence of DTT for 15 minutes at 37° C. prior to addition of AENA labeled peptide substrates. At various time points, up to 26 h, 20 μL aliquots were removed and acidified to a pH of 3 with TFA. Analysis of fractions was performed using HPLC with a Aquasil C18 reverse-phase column (250×4.6, Thermofisher, Waltham, Mass.), monitored at 390 nm and 335 nm for AENA and EDANS respectively. Elution was performed with a gradient of acetonitrile and water buffered with 0.1% formic acid. Generation of unmodified reporter molecule was measured. To minimize freeze thaw cycles the lysosomal extract was dispensed into multiple aliquots prior to storage at −80° C. A new aliquot was employed for each study and used immediately upon thawing. Lysosomal extract was sourced from female Hans Wistar rats by differential density gradient centrifugation (Graham et al. 2000). Protein concentration of lysosomal extract was determined by standard BCA protein assay protocols. […]
Rate (also called velocity of degradation or velocity) was extrapolated during early linear turnover (Table 2). As used herein, rate is defined as the linear rate of reporting group generation at less than 50% completion (digestion rate was assumed to be linear at less than 50% completion). For substrates in which cleavage deviated from consecutive first order kinetics, the percent of reporting group liberated at the endpoint of digestion was used as a metric for comparison.

SMILES	rate of proteolytic digestion, influence of R5 (22a vs 23, 22a vs 22b)	velocity, proline vs leucine at A1 (23 vs 27, 24b vs 25b)	Sample Velocity	Normalized Velocity	Velocity, Sample (Table 3, FCitFP linker with various R5)	Velocity, Normalized (Table 3, normalized with compound 60)	% Released at Endpoint (endpoint at 23 hours)	Relative Velocity, Lysosomal Extract	% Released at Endpoint (endpoint at 24 hours)
COCCOCCOCCOCCOCCOCCOCCOCCOCCOCCOCCOCCC(=O)N[C@@H](Cc1ccccc1)C(=O)N[C@@H](CCCNC(N)=O)C(=O)N[C@@H](Cc1ccccc1)C(=O)N1CCC[C@H]1C(=O)NCCNc1ccc([N+](=O)[O-])cc1 [Compound 23, PEG12-FCitFP-AENA] ({CH3O(CH2CH2O)11CH2CH2CO}-F[Cit]FP-X1)	essentially equivalent in terms of rate of proteolytic digestion	considerable increase in velocity	192.7 nmol/h	192.9 nmol/h	192.7 nmol/h	192.9 nmol/h	*99.5%	100.0	
COCCOCCOCCOCCOCCOCCOCCOCCOCCOCCOCCOCCC(=O)N[C@@H](CCCNC(N)=O)C(=O)N[C@@H](C)C(=O)N1CCC[C@H]1C(=O)NCCNc1ccc([N+](=O)[O-])cc1 [Compound 42, PEG12-CitAP-AENA]			1.0 nmol/h	0.9 nmol/h				0.5	**5.8%

From patent US10005815B2, “Biologically cleavable tetrapeptide linking agents” (Arrowhead Madison Inc., priority 2015, dated 2018)
